Results published in patent US10793526B2, “Hydantoin derivative compounds, methods of use and methods of treatment” (University of South Florida, priority 2016, dated 2020).

Tested on: red blood cells (RBCs) of mice
Assay: Hemolytic assay
Type: cell-based
Conditions: selectivity index, MRSA MIC vs hemolytic activity
Experimental: Fresh red blood cells (RBCs) of mice were washed with 1×PBS buffer and centrifuged 10 min at 3500 rpm for 3 times until the supernatant was clear, then RBCs were diluted into 5% v/v suspension in 1×PBS. 50 μL compounds in PBS were 2-fold serially diluted in a 96-well plate, and incubated with 50 μL RBCs suspension for 1 h at 37° C. The mixture was then centrifuged for 10 min at 3500 rpm. Subsequently, 30 μL of the supernatant was added to 100 μL PBS, then the absorbance of mixture was read on a Biotek Synergy HT plate reader at 540 nm. The hemolytic activity was calculated by the formula % hemolysis=(Abssample−AbsPBS)/(AbsTriton−AbsPBS)×100%. 1% Triton X-100 were used as the positive control and 1×PBS buffer was used as the negative control.

CCCCCCCCCCCC(=O)N[C@@H](CCCCN)CN1CC(=O)N(c2cccc(Cl)c2)C1=O [Compound 22, (S)—N-(6-amino-1-(3-(3-chlorophenyl)-2,4-dioxoimidazolidin-1-yl)hexan-2-yl)dodecanamide]
SI (HC50/MIC): 190
